The record followed here is PubChem BioAssay AID662 (National Center for Advancing Translational Sciences (NCATS), 2007).

Molecules are shown by their SMILES. Some of the results follow. Shown are side measurements of this screen, not its main read-out; they come without a call. Compounds called inactive in the main read-out are mostly missing here. Potencies come from curve fits of mixed quality, noted in brackets.

The assay can be described thus: Cell signaling CRE-BLA (Fsk stim). The settings on record: CHO CRE-bla reporter (cAMP response element driving beta-lactamase), forskolin EC10, beta-lactamase ratio; measured here: 460 nm blue channel. In short, it runs like this:
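AC50 values, positive or negative, reflect shifts in EC10 NKH 477-induced CRE-bla reporter activity in CHO cells. Incubation lasted 3 h at 37 °C before CCF4 substrate (2 h, room temperature) and ratiometric 460/530 nm reading.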
Turning to `C=CCn1c(O)c(C(CC)=NCc2cccnc2)c(=O)[nH]c1=O`, the AC50 is 15.8 µM [rising, partial curve].
The result for `CCOC(=O)CN1C(=O)C(CC)Oc2ccc(Cl)cc21` (stereo not drawn) reads 12.6 µM [rising, single point]; that for `Cn1cc(-c2nc3cncnc3n(C3CC3)c2=O)c2ccccc21`, 12.6 µM [rising, partial curve]; that for `C=CCNc1oc(-c2ccc(OCC)cc2)nc1C#N`, 12.6 µM [rising, partial curve].
The result for `Cc1csc(N(C(=O)c2cccc(S(=O)(=O)N(C)C)c2)c2ccccc2)n1` reads 10 µM [rising, partial curve]; that for `O=C(Cc1cccs1)N1CCC(c2nc3c(nnn3Cc3ccccc3Cl)c(=O)[nH]2)CC1`, 12.6 µM [rising, single point].
The value for `CSc1nc2sc3c(c2c(=O)n1C)CCC(C)C3` (stereo not drawn) was 0.398 µM [rising, partial curve].
For the compound `CCCCOc1ccc(C(=O)O)cc1`, the AC50 was 0.126 µM [falling, single point].
The value for `O=C(c1cc2c(s1)CCCCC2)N1CCN(c2ncccn2)CC1` was 10 µM [rising, partial curve]; that for `Cc1cc(NC(=O)c2cc3n(n2)C(C(F)(F)F)CC(c2ccco2)N3)n(-c2ccccc2)n1` (stereo not drawn) was 10 µM [rising, single point]; that for `Cc1ccc(C2CC(C(F)(F)F)n3ncc(C(=O)NCc4ccco4)c3N2)cc1` (stereo not drawn) was 12.6 µM [falling, single point].
As for `O=C(O)C1=CCNCC1`, the AC50 was 31.6 µM [falling, single point].
The value for `COCCCn1c2nc3ccccc3nc2c2c(=O)n(Cc3ccc(Cl)cc3)c(C)nc21` was 0.501 µM [rising, full curve, poor fit]; that for `COC(=O)C1CCN(C(=O)CSc2nnc(-c3ccncc3)o2)CC1` was 0.00316 µM [falling, full curve, poor fit].
The result for `Cc1nc(NC(C)c2ccccc2)c2oc3ccccc3c2n1` (stereo not drawn) reads 12.6 µM [rising, single point]; that for `Cc1ccc(Cn2c3ccccc3c3cn[nH]c(=O)c32)cc1`, 1.58 µM [rising, full curve, poor fit].
The result for `CCCn1c(C)nc2c(c1=O)c1nc3ccccc3nc1n2CCc1ccccc1` reads 10 µM [rising, partial curve]; that for `CCn1c(=O)[nH]c2ccccc21`, 31.6 µM [falling, single point].
`COc1ccc(Nc2nnc(Cc3ccccc3)c(=O)[nH]2)c(OC)c1`: the AC50 was 12.6 µM [falling, partial curve, poor fit].
The result for `C=CCSc1nc2ccccc2c(=O)[nH]1` reads 3.98 µM [rising, single point]; that for `CCN(CC)c1nc(C#N)nc(N(CC)CC)n1`, 10 µM [rising, partial curve].
In the case of `COc1ncc2nc(-c3cccc(C#N)c3)c(=O)n(CCC#N)c2n1`, the AC50 was 6.31 µM [rising, partial curve].
Consider `C=CCn1c(SCC(=O)Nc2cc(C)nn2-c2ccccc2)nnc1C1CCCCC1`, for which the AC50 was 3.98 µM [falling, partial curve].
Turning to `CCCCNC(=O)c1ccc2c(c1)N(CC)C(=O)CS2`, the AC50 is 15.8 µM [rising, single point].
The result for `CCOC(=O)CNC(=O)CSc1nc2cccnc2n1C1CCCCC1` reads 15.8 µM [rising, partial curve]; that for `COc1ccccc1CNc1ccnc(-c2cccnc2)n1`, 7.94 µM [rising, partial curve]; that for `O=C(C1CCN(S(=O)(=O)c2cccc3cccnc23)CC1)N1CC=C(c2ccccc2)CC1`, 12.6 µM [falling, partial curve].
The value for `O=C(c1ccc2nc(-c3ccco3)c(-c3ccco3)nc2c1)N1CCN(c2ccccc2)CC1` was 10 µM [rising, single point]; that for `O=C(Nc1ccccc1C(F)(F)F)c1cc(-c2cccc(O)c2)on1` was 1.26 µM [falling, partial curve].
On to `O=C(CSc1ncn[nH]1)c1ccco1`, for which the AC50 was 0.1 µM [falling, single point].
The value for `CCCCOn1c(C)c(C(=O)OCC)c2c3nonc3ccc21` was 10 µM [rising, partial curve]; that for `O=C(CCN1C(=O)C2C3C=CC(C3)C2C1=O)NCC1CCCO1` (stereo not drawn) was 0.0398 µM [falling, full curve, poor fit].
The result for `Cc1c(NC(=O)c2ccc3c(c2)OCO3)c(=O)n(-c2ccccc2)n1C` reads 1 µM [falling, full curve]; that for `CC(=O)NC12CC3CC(C1)CC(C(=O)OCC(=O)c1ccc4c(c1)OCCO4)(C3)C2`, 5.01 µM [falling, single point]; that for `COc1ccc(OC)c(N=c2oc3cc(O)ccc3cc2C(N)=O)c1`, 10 µM [rising, partial curve].
The result for `Cc1cc(S(=O)(=O)NC2CCCCC2)c(C)s1` reads 0.00794 µM [falling, full curve, poor fit].
Turning to `Cc1nc(Nc2nc(-c3ccccc3)cc(=O)[nH]2)nc2ccccc12`, the AC50 was 10 µM [rising, partial curve].
The value for `CC(=O)O[C@]1(C)N=NC2(CCCCC2)O1` was 0.01 µM [falling, full curve, poor fit]; that for `N=c1ccn(Cc2ccc(Cl)c(Cl)c2)cc1` was 15.8 µM [falling, partial curve].
The value for `CCOC(=O)c1sc2ccc(S(=O)(=O)N3CCOCC3)cc2c1N` was 10 µM [rising, single point]; that for `CCOc1ccc(-n2c(=O)c3c4c(sc3n(CC(=O)NCc3ccco3)c2=O)CCC4)cc1` was 3.16 µM [falling, partial curve]; that for `Cc1ccc(S(=O)(=O)c2n[nH]n3c2nc(=O)c2ccccc23)cc1` was 3.16 µM [rising, partial curve].
The result for `COc1ccc2oc(-c3ccc(O)cc3)cc(=O)c2c1` reads 10 µM [rising, partial curve].
For `COc1ccc(OC)c(Nc2nc(-c3sc(C)nc3C)cs2)c1`, the AC50 is 15.8 µM [falling, single point].
The result for `CCOC(=O)Cn1c(=O)oc2cc(S(=O)(=O)Nc3cc(OCC)ccc3OCC)ccc21` reads 6.31 µM [rising, single point]; that for `Cc1cc(Oc2ccccc2)nc(-c2ccccc2)n1`, 0.0501 µM [falling, partial curve, poor fit]; that for `CCOC(=O)c1c(C)n(C)c2ccc(OC(C)C(=O)OC)cc12` (stereo not drawn), 12.6 µM [rising, single point].
The value for `COc1cccc2c1C(=O)c1c(O)c3c(c(O)c1C2=O)C[C@](O)(C(C)=O)C[C@H]3O[C@@H]1C[C@H](N)[C@H](O)[C@H](C)O1` was 5.01 µM [rising, partial curve]; that for `NCCc1nnc(SCc2c(F)cccc2Cl)o1` was 2.51 µM [falling, partial curve].
The value for `CN(Cc1ccccc1)c1nc2c(c(=O)[nH]c(=O)n2C)n1Cc1ccccc1` was 7.94 µM [rising, partial curve].
With `COc1ccccc1NC(=O)N(Cc1cc2cc(OC)c(OC)cc2[nH]c1=O)CC1CCCO1` (stereo not drawn), the AC50 is 10 µM [rising, partial curve].
In the case of `CCCCCCN(C(=O)CCCCCN1C(=O)NC(c2ccc(-c3ccccc3)cc2)C(C(=O)OCc2ccccc2)=C1C)C(C(=O)NCCCC)c1ccc(OCC(=O)OC)c(C(=O)OC)c1` (stereo not drawn), the AC50 was 3.16 µM [rising, full curve, poor fit].
The result for `CCC(C(=O)Nc1nccs1)c1ccccc1` (stereo not drawn) reads 1 µM [falling, full curve]; that for `CCOc1cccc(-n2nnnc2-c2ccc(OC)cc2)c1`, 15.8 µM [rising, single point].
`Cc1ccc(C)c(N2CCN(S(=O)(=O)c3ccc4[nH]c(=O)c(=O)[nH]c4c3)CC2)c1`: the AC50 was 2 µM [falling, partial curve, poor fit].
On to `CCCc1[nH]nc2c1C(c1ccc(OC)cc1OC)C(C#N)=C(N)O2` (stereo not drawn), for which the AC50 is 0.126 µM [falling, single point].
The result for `CN(Cc1ccco1)c1ncnc2ccc(-c3cccnc3)cc12` reads 3.98 µM [rising, full curve]; that for `COCCn1c(SCC(=O)N2CCCc3ccccc32)nc2ccccc2c1=O`, 3.16 µM [rising, single point]; that for `CCCCn1c(SCC(=O)NC(=O)NCc2ccco2)nc2cc(S(N)(=O)=O)ccc21`, 3.16 µM [falling, full curve].
The result for `Cc1oc(-c2ccccc2F)nc1CN1CCC(C(=O)NCc2cccs2)CC1` reads 12.6 µM [falling, single point].
The value for `COc1cc(Cl)c(S(=O)(=O)N2CCN(Cc3ccc4c(c3)OCO4)CC2)cc1Cl` was 15.8 µM [falling, partial curve]; that for `O=c1oc2c(CN3CCOCC3)c(O)c(Cl)cc2c2c1CCC2` was 10 µM [rising, partial curve]; that for `COc1ccc(C(=O)OCCNC(=O)c2c(Cl)nc3ccccn23)cc1` was 0.501 µM [rising, full curve].
`CCNc1ncc2nc(-c3cn(C)c4ccccc34)c(=O)n(-c3ccccc3)c2n1`: the AC50 was 5.01 µM [rising, partial curve].
For the compound `Cc1[nH]c2ccccc2c1C(=O)CN1CCN(C2CCCCC2)CC1`, the half-maximal activity concentration (AC50) was 3.16 µM [falling, full curve].
The result for `CC(C)Cn1c(N)c(C(=O)NCc2cccs2)c2nc3ccccc3nc21` reads 12.6 µM [rising, partial curve]; that for `Cc1occc1C(=O)NCc1ccc2c(c1)OCO2`, 0.251 µM [rising, partial curve].
With `COc1ccc(C(=O)Nc2ccccc2NC(=O)c2ccco2)cc1OC`, the AC50 is 10 µM [rising, partial curve].

By AC50 is commonly meant the concentration at which the activity in the assay is half-maximal.
